Screening data

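HEK293 cells that do not carry TSHR, used to check whether compounds lower the cAMP signal, measured by time-resolved FRET; duration unknown. Each compound was titrated in a series from about 0.0037 to 57 µM. The number is a fitted AC50 potency for signal inhibition; lower values mean more potent inhibition. Calls come from curve class and fit quality: full, well-fitted curves score as active, while partial or poorly fitted curves are scored inconclusive.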

Values are in nM. All entries here are filed as inconclusive. Only part of the assay is shown, chiefly results filed as inconclusive. Potencies fitted to partial, single-point or poorly fitting curves are rough. Activity scores are not listed here.

| Compound | fitted potency (nM) | curve |
|---|---|---|
| `O=[N+]([O-])c1c(Nc2cccc(O)c2)cc(Cl)c2nonc12` | 15101 | inhibitor, partial curve, poor fit |
| `Nc1ccccc1N=Cc1ccc(-c2cccc(Cl)c2)o1` | 23934 | inhibitor, partial curve, poor fit |
| `O=C(Nc1ccc(N2CCN(C(=O)c3ccccc3)CC2)cc1)c1cc2ccccc2o1` | 23934 | inhibitor, partial curve, poor fit |
| `Cc1ccc2oc(=O)c3cnn(CC(=O)N4CCN(c5ccccc5)CC4)c3c2c1` | 21331 | inhibitor, partial curve, poor fit |
| `CCn1nc(C)cc1-c1nnc(Sc2ncc([N+](=O)[O-])s2)n1C` | 33807 | inhibitor, partial curve, poor fit |
| `O=S(=O)(c1cccs1)N1CCN(CC(O)COc2cc(Cl)ccc2Cl)CC1` (configuration not stated) | 26854 | inhibitor, partial curve, poor fit |
| `Fc1ccc2[nH]c3c(N4CCN(c5ccccc5)CC4)ncnc3c2c1` | 37932 | inhibitor, partial curve, poor fit |
| `O=C(Nc1ccc(Cl)c(Cl)c1)c1cccc(S(=O)(=O)NCc2cccnc2)c1` | 16944 | inhibitor, partial curve, poor fit |
| `CCS(=O)(=O)c1ncc(Cl)c(C(=O)Nc2ccc(S(=O)(=O)N(C)c3ccccc3)cc2)n1` | 33807 | inhibitor, partial curve, poor fit |
| `COc1ccc(-c2nn(-c3ccccc3)cc2/C=N/NC(=O)c2ccc(Br)o2)cc1` | 13459 | inhibitor, partial curve, poor fit |
| `CCC(=O)NC1=C(Cl)C(=O)C(NC(=O)CC)=C(Cl)C1=O` | 190114 | inhibitor, partial curve, poor fit |
| `CC(NC(=O)/C(C#N)=C/c1ccc([N+](=O)[O-])o1)c1ccccc1` (configuration not stated) | 26854 | inhibitor, partial curve, poor fit |
| `O=C(Nc1ccn(-c2ccccc2)n1)c1ccc(S(=O)(=O)N2CCCCCC2)cc1` | 16944 | inhibitor, partial curve, poor fit |
| `O=C(Nc1cccc(Cl)c1)Nc1ccc(Br)cc1F` | 10690 | inhibitor, partial curve, poor fit |
| `CCN(CC)c1ccc(NC2=C(Cl)C(=O)c3ccccc3C2=O)cc1` | 151013 | inhibitor, partial curve, poor fit |
| `Fc1ccc2[nH]c3c(N4CCN(Cc5ccc6c(c5)OCO6)CC4)ncnc3c2c1` | 16944 | inhibitor, partial curve, poor fit |
| `O=S(=O)(Cc1cc(Cl)nc(-c2cccnc2)n1)c1ccccc1` | 9528 | inhibitor, partial curve, poor fit |
| `CCOC(=O)CCS(=O)(=O)c1nc(-c2ccccc2)cc(C(F)(F)F)n1` | 33807 | inhibitor, partial curve, poor fit |
| `N#Cc1ccc(Nc2nc(-c3ccc(O)cc3O)cs2)cc1C(F)(F)F` | 30131 | inhibitor, partial curve, poor fit |
| `CC1=CC(=O)C(C(C)C)=C/C1=N/OS(=O)(=O)c1ccccc1` | 15101 | inhibitor, partial curve, poor fit |
| `N#CC(C#N)=NNc1ccc(-n2ccc(C(F)(F)F)n2)cc1` | 674.6 | inhibitor, partial curve, poor fit |
| `O=C(N[C@H]1C/C=C\C(c2ccc(F)cc2)N(Cc2ccccc2)C(=O)C1)OCC1c2ccccc2-c2ccccc21` (some centres not stated) | 13459 | inhibitor, partial curve, poor fit |
| `CS(=O)(=O)N(Cc1ccccc1)c1ccc(C(=O)N2CCN(c3cccc(Cl)c3)CC2)cc1` | 21331 | inhibitor, partial curve, poor fit |
| `Cc1ccc(Cl)cc1NC1=C/C(=N\S(=O)(=O)c2cccs2)c2ccccc2C1=O` | 3013 | inhibitor, partial curve, poor fit |
| `CCc1noc(C)c1C(=O)OCC(=O)Nc1nc(-c2ccc(F)c(F)c2)cs1` | 6012 | inhibitor, partial curve, poor fit |
| `Cc1cccc2c1-c1sc(C(=O)NCCCN3CCCC(C)C3)cc1CO2` (configuration not stated) | 756.9 | inhibitor, partial curve, poor fit |
| `O=C(Nc1ccc([N+](=O)[O-])cc1Cl)c1cc(Cl)ccc1O` | 37932 | inhibitor, partial curve, poor fit |
| `Cc1ccc2c(c1)[nH]c1c(N3CCN(Cc4ccccc4)CC3)ncnc12` | 10690 | inhibitor, partial curve, poor fit |
| `O=C(O)c1ccc(S(=O)(=O)/N=C2\C=C(Nc3ccccc3F)C(=O)c3ccccc32)cc1` | 15101 | inhibitor, partial curve, poor fit |
| `COc1cccc(CN(C)C(=O)CNC(=O)c2ccc(-c3ccccc3)cc2)c1OC` | 23934 | inhibitor, partial curve, poor fit |
| `CCOC(=O)c1cccc(OCC(O)CNCCOc2ccccc2F)c1` (configuration not stated) | 674.6 | inhibitor, partial curve, poor fit |

4 of the entries, repeated:

{"compound": "CCS(=O)(=O)c1ncc(Cl)c(C(=O)Nc2ccc(S(=O)(=O)N(C)c3ccccc3)cc2)n1", "fitted potency (nM)": "33807", "curve": "inhibitor, partial curve, poor fit"}
{"compound": "CCOC(=O)CCS(=O)(=O)c1nc(-c2ccccc2)cc(C(F)(F)F)n1", "fitted potency (nM)": "33807", "curve": "inhibitor, partial curve, poor fit"}
{"compound": "O=S(=O)(Cc1cc(Cl)nc(-c2cccnc2)n1)c1ccccc1", "fitted potency (nM)": "9528", "curve": "inhibitor, partial curve, poor fit"}
{"compound": "COc1ccc(-c2nn(-c3ccccc3)cc2/C=N/NC(=O)c2ccc(Br)o2)cc1", "fitted potency (nM)": "13459", "curve": "inhibitor, partial curve, poor fit"}

Data taken from PubChem BioAssay AID602441, deposited by NCATS (2012).